Record: PubChem BioAssay AID504764 (Drosophila RNAi Screening Center, 2011)
The screen tested about 22,000 reagents; below is a random part of those with a known target gene and a result. In the full data, 403 (1.9%) are marked active. 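Unnormalised raw counts per well; ratio z-scores behind the hit calls and whether each hit raises or lowers signal are not deposited.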 Unmarked entries are inactive. Names joined by + are all predicted targets of the reagent. Reagent sequences are not shown. Not stated in the record: the amount of reagent.

Assay: 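Genome-wide screen for regulators of Notch-driven gene expression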 (primary screen)
System: Drosophila Kc167 cells
Reagent: long dsRNA against Drosophila genes
Time to read-out: about 5 days (4 days dsRNA, then 24 h after transfection)
Challenge: transfection of constitutively active membrane-tethered Notch lacking the extracellular domain, read 24 h later
Detection: 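Light from a Notch-responsive E(spl)m3 luciferase reporter under active Notch, with control-promoter and no-Notch reporter wells to normalise; raw counts from paired wells a and b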
Reading the numbers: induced reporter light, run 1, well a and induced reporter light, run 1, well b: higher = more light from the Notch target reporter with active Notch; control promoter light, run 1, well a and control promoter light, run 1, well b: higher = more light from the viral control promoter (cell number, transfection, viability); uninduced reporter light, run 1, well a: higher = more light from the Notch target reporter without active Notch
Hit rule: 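Wells with low control signal or poorly matching duplicates excluded; duplicates averaged; per source plate, z beyond ±2 for induced/control log2 ratio or beyond ±1.8 for induced/uninduced marks a hit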
Meaning of the calls: active = modifier hit (raised or lowered Notch signal); inactive = not a hit

no.	target	DRSC id	induced reporter light, run 1, well a	induced reporter light, run 1, well b	control promoter light, run 1, well a	control promoter light, run 1, well b	uninduced reporter light, run 1, well a
1	Cpr72Ec	DRSC10449	99860	93965	53645	73135	7490
2	stac	DRSC13693	1.89e5	1.77e5	2.15e5	2.15e5	17185
3	stac	DRSC14392	1.52e5	1.50e5	1.80e5	1.94e5	15460
4	Sou	DRSC04356	21665	19925	32855	18620	1460
5	ORMDL	DRSC11737	1.57e5	98785	1.08e5	87395	7950
6	nxf2	DRSC10403	1.31e5	1.25e5	93375	1.26e5	9530
7	CG31373	DRSC16052	1.02e5	89765	93065	93210	4160
8	CG13248	DRSC11696	1.70e5	1.25e5	1.04e5	1.03e5	8745
9	Trxr1	DRSC18668	1.76e5	1.48e5	2.06e5	2.24e5	12150
10	RagA-B	DRSC14450	75635	77205	66205	59270	5775
11	CR46300	DRSC12467	1.69e5	1.92e5	1.94e5	2.47e5	16838
12	PH4alphaEFB	DRSC14473	1.69e5	1.79e5	2.06e5	2.73e5	13232
13	PH4alphaEFB	DRSC14950	1.05e5	1.19e5	1.47e5	1.79e5	10170
14	CG12398	DRSC19454	98340	82855	1.35e5	1.11e5	10400
15	CG34436	DRSC15164	6810	5315	10135	8660	460
16	Dop1R1	DRSC13021	1.62e5	1.33e5	2.05e5	1.80e5	11300
17	Dop1R1	DRSC16652	2.46e5	3.17e5	1.82e5	1.64e5	20945
18	Saf-B	DRSC16167	1.40e5	1.46e5	1.44e5	1.49e5	15120
19	Hip1	DRSC09812	82315	1.09e5	76140	38965	9160
20	lok	DRSC03567	2.39e5 (active)	2.05e5	1.35e5	1.57e5	14488
21	Fem-1	DRSC07322	1.27e5	1.10e5	1.90e5	1.87e5	5645
22	kuk	DRSC15730	1.92e5	1.97e5	2.36e5	2.21e5	15080
23	Tret1-2	DRSC07117	1.09e5	1.31e5	1.50e5	1.49e5	10410
24	CG2983	DRSC00558	1.40e5	1.57e5	1.13e5	98990	8735
25	CG12520	DRSC09892	1.24e5	1.40e5	2.45e5	1.67e5	7940
26	CG43163	DRSC10745	1.76e5	1.44e5	2.03e5	1.51e5	5540
27	CG43163	DRSC10748	1.46e5	1.43e5	1.34e5	1.37e5	6640
28	CG33298	DRSC02210	1.20e5	1.51e5	87650	1.15e5	20770
29	CG33298	DRSC02672	3.24e5	3.52e5	2.55e5	2.52e5	23528
30	CG17024 (retired record)	DRSC02562	1.35e5	1.60e5	1.49e5	2.07e5	13215
31	CG42449	DRSC18084	1.13e5	1.39e5	2.44e5	2.69e5	9205
32	CG13982	DRSC02314	1.76e5	2.04e5	1.77e5	1.76e5	9135
33	CG7992	DRSC20070	87750	1.03e5	1.21e5	1.16e5	11700
34	CG4313	DRSC18514	1.52e5	1.87e5	1.82e5	2.30e5	12960
35	CG9083	DRSC04625	2.54e5 (active)	2.88e5	1.78e5	2.13e5	16365
36	anne	DRSC17103	52165	63210	89780	72570	6280
37	Hecw	DRSC18261	1.18e5	1.04e5	1.74e5	1.63e5	7265
38	Hecw	DRSC18276	1.29e5	1.43e5	2.33e5	2.90e5	8500
39	Rh6	DRSC16823	2.62e5	2.62e5	2.62e5	2.49e5	17905
40	mth	DRSC08725	73230	72855	98735	1.21e5	6078
41	CG15387	DRSC00401	1.43e5	1.73e5	1.35e5	80315	10715
42	CG12725	DRSC19501	1.32e5	1.21e5	1.65e5	1.38e5	8160
43	veli	DRSC16276	1.99e5	1.45e5	1.73e5	1.40e5	12640
44	CG7276	DRSC10797	2.55e5	2.02e5	3.03e5	3.23e5	10405
45	CG15916	DRSC19740	69005	74160	80250	69670	10845
46	Gr23a	DRSC00410	1.01e5	82590	96170	63555	7210
47	CG14326	DRSC14805	2.16e5	2.10e5	2.26e5	2.47e5	17265
48	CG31093	DRSC15689	1.73e5	1.84e5	2.02e5	1.80e5	15170
49	hoe1	DRSC00265	2.21e5	1.68e5	2.03e5	2.10e5	20455
50	hoe1	DRSC00333	2.15e5	1.90e5	1.73e5	1.99e5	9510
51	hoe1	DRSC00353	1.25e5	1.11e5	1.51e5	1.19e5	6545
52	CG34267	DRSC07881	2.11e5	1.90e5	2.02e5	1.90e5	15565
53	CG13362	DRSC17897	1.22e5	1.15e5	2.10e5	2.20e5	7845
54	CG12825	DRSC06174	1.82e5	2.40e5	3.05e5	2.69e5	20265
55	Ae2	DRSC08997	1.51e5	1.41e5	2.40e5	2.28e5	11500
56	Ae2	DRSC10969	1.35e5	1.22e5	94310	86490	13280
57	tst + CG10375	DRSC14237	1.67e5	2.02e5	2.15e5	2.53e5	14750
58	Klp31E	DRSC03354	2.23e5	2.34e5	2.01e5	1.87e5	15585
59	Pop4	DRSC10955	2.29e5	2.67e5	3.77e5	2.37e5	11240
60	mRpS22	DRSC14488	1.74e5	2.20e5	2.78e5	3.02e5	14095
61	ACXA	DRSC00844	1.42e5	1.36e5	1.35e5	1.60e5	11030
62	Rbf2	DRSC16816	2.09e5	2.00e5	2.02e5	2.17e5	16540
63	yellow-e	DRSC12966	1.33e5	1.36e5	2.13e5	1.67e5	11250
64	yellow-e	DRSC16563	2.41e5	2.35e5	2.63e5	2.40e5	18800

Copied from the entries so far, 5 entries:
no.	target	DRSC id	induced reporter light, run 1, well a	induced reporter light, run 1, well b	control promoter light, run 1, well a	control promoter light, run 1, well b	uninduced reporter light, run 1, well a
47	CG14326	DRSC14805	2.16e5	2.10e5	2.26e5	2.47e5	17265
48	CG31093	DRSC15689	1.73e5	1.84e5	2.02e5	1.80e5	15170
49	hoe1	DRSC00265	2.21e5	1.68e5	2.03e5	2.10e5	20455
50	hoe1	DRSC00333	2.15e5	1.90e5	1.73e5	1.99e5	9510
51	hoe1	DRSC00353	1.25e5	1.11e5	1.51e5	1.19e5	6545
